In article PMC12244780:
No constants are given. Whether binding was seen depends on the method and setting. Binding seen in cells or lysates may run through a third protein. Some entries that bind do so weakly or less than the wild type. Sequences can lack the tags named with a protein.

Sequences of proteins named here, by UniProt entry; tags and fusion partners are left off.
UniProt O75369: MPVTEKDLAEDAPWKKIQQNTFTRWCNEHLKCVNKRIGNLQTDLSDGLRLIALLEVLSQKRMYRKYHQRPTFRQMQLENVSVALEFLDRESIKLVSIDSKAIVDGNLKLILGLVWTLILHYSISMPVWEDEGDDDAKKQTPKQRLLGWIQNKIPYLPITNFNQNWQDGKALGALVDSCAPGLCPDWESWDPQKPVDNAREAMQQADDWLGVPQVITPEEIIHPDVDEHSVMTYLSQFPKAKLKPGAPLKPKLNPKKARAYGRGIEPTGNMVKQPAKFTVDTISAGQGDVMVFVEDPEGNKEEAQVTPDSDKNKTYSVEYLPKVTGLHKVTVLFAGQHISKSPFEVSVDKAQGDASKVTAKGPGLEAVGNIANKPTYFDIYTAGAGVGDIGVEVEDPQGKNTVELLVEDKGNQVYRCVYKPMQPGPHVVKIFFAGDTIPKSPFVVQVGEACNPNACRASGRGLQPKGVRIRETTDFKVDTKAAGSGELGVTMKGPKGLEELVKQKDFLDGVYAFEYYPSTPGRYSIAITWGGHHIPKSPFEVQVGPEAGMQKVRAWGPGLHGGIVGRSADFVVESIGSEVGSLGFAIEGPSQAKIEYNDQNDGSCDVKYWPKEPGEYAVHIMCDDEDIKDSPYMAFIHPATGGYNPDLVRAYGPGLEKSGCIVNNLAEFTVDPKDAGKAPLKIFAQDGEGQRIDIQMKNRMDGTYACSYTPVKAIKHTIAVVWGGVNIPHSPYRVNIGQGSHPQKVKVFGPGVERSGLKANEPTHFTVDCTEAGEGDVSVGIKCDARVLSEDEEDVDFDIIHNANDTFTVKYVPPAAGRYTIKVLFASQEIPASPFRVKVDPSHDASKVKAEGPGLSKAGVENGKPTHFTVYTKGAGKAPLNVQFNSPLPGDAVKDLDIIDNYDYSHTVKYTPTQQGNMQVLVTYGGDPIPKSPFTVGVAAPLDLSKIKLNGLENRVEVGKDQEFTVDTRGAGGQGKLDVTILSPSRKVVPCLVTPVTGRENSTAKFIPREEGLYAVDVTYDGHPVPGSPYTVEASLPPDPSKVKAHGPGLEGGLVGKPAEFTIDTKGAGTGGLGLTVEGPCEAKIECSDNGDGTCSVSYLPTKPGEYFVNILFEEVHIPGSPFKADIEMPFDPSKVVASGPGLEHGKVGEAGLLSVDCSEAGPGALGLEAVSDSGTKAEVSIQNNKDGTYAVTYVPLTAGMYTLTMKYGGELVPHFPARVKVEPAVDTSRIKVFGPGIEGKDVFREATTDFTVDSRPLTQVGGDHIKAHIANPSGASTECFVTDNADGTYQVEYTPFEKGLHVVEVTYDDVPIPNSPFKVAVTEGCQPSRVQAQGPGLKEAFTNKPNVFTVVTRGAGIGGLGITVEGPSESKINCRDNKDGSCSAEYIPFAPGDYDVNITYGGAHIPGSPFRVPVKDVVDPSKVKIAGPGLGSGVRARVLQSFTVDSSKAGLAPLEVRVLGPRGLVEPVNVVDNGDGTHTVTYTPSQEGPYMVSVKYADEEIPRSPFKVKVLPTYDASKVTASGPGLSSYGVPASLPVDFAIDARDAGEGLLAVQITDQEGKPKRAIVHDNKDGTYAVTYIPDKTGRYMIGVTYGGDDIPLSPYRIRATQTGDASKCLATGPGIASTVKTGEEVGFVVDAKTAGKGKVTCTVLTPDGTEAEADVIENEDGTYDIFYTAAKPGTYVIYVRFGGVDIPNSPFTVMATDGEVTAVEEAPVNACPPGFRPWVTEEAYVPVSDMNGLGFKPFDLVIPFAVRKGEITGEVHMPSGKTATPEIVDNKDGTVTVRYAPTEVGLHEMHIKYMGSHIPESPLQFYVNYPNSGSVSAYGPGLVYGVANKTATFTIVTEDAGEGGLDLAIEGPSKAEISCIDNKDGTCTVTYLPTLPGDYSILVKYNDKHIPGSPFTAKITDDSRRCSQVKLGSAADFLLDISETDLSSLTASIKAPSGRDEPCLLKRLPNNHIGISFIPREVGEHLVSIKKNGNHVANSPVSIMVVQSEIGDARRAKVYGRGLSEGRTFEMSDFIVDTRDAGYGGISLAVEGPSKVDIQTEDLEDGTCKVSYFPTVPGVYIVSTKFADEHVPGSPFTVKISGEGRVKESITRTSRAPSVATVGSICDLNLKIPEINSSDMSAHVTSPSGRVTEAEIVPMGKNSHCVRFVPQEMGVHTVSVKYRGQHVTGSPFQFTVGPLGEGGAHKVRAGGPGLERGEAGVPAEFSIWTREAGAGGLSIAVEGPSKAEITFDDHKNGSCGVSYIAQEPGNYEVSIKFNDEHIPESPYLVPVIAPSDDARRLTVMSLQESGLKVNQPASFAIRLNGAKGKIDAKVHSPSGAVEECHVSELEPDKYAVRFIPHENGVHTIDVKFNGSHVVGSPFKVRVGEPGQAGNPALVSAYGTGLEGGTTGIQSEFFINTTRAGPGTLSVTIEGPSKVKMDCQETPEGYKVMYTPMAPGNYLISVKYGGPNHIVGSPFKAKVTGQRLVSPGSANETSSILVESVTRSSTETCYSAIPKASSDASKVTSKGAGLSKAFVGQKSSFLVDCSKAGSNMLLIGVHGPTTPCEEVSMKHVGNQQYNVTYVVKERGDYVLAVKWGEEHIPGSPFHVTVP

T1: Flag-MTMR7 (myotubularin-related protein 7) (UniProt Q9Y216)
T1 sequence: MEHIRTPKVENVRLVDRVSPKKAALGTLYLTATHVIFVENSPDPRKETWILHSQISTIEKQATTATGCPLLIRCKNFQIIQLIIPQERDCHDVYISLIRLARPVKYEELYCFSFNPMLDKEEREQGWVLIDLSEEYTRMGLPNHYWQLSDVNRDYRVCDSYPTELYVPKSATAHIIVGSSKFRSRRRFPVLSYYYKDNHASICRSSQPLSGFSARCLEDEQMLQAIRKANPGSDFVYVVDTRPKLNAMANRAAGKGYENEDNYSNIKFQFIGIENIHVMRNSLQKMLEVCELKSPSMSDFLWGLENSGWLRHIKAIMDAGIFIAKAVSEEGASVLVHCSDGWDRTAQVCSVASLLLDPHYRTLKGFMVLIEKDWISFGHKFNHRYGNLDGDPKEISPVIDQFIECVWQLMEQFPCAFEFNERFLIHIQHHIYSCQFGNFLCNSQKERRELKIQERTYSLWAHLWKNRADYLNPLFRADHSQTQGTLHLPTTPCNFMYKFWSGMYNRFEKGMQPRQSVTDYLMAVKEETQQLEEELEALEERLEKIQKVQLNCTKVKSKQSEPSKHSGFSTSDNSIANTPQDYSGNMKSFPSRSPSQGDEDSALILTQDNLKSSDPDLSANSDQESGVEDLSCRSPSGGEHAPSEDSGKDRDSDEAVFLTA


What was measured:
[1] = molecular target: T1, Flag-MTMR7 (myotubularin-related protein 7); assay: co-IP; lysate of SSCs transfected with Flag-MTMR7 or empty vector; immunoprecipitated with Flag-beads; Western blot
[2] = molecular target: filamin B (FLNB) (human (endogenous in human SSC line)) (UniProt O75369); assay: co-IP; lysate of SSCs transfected with Flag-MTMR7 or empty vector; immunoprecipitated with anti-FLNB antibodies; Western blot

binding [1]	binding [2]	Molecule
binds	–	filamin B (FLNB) (from UniProt O75369 1-2602)
–	binds	Flag-MTMR7 (myotubularin-related protein 7) (enzyme, UniProt Q9Y216 1-660) MEHIRTPKVENVRLVDRVSPKKAALGTLYLTATHVIFVENSPDPRKETWILHSQISTIEKQATTATGCPLLIRCKNFQIIQLIIPQERDCHDVYISLIRLARPVKYEELYCFSFNPMLDKEEREQGWVLIDLSEEYTRMGLPNHYWQLSDVNRDYRVCDSYPTELYVPKSATAHIIVGSSKFRSRRRFPVLSYYYKDNHASICRSSQPLSGFSARCLEDEQMLQAIRKANPGSDFVYVVDTRPKLNAMANRAAGKGYENEDNYSNIKFQFIGIENIHVMRNSLQKMLEVCELKSPSMSDFLWGLENSGWLRHIKAIMDAGIFIAKAVSEEGASVLVHCSDGWDRTAQVCSVASLLLDPHYRTLKGFMVLIEKDWISFGHKFNHRYGNLDGDPKEISPVIDQFIECVWQLMEQFPCAFEFNERFLIHIQHHIYSCQFGNFLCNSQKERRELKIQERTYSLWAHLWKNRADYLNPLFRADHSQTQGTLHLPTTPCNFMYKFWSGMYNRFEKGMQPRQSVTDYLMAVKEETQQLEEELEALEERLEKIQKVQLNCTKVKSKQSEPSKHSGFSTSDNSIANTPQDYSGNMKSFPSRSPSQGDEDSALILTQDNLKSSDPDLSANSDQESGVEDLSCRSPSGGEHAPSEDSGKDRDSDEAVFLTA
